In PMC3197140:

B1: integrin β1 CT peptide (peptide)
peptide: WDTGENPIYKSAVTTVVNPKYEGK
B2: WTMigfilinR9 peptide (peptide)
peptide: MASKPEKRVASSVFITLAPPRRDVRRRRRRRRR
B3: MTMigfilinR9 peptide (peptide)
peptide: B2 peptide with S11D, V13A

biological target: ^15N labeled FLNA repeat 21; assay: NMR titration; 2D 1H-15N HSQC of 15N labeled FLNA repeat 21 with peptide; Bruker Advance 600 MHz spectrometer with cryoprobe; both purified

binding, binds:
B1
B2
B3

Substitutions are numbered along the chain they refer to. These are yes or no findings as the source states them, for the method shown. A result given as binding can be weak or reduced; the word gives no strength.
